Experimental data published in paper PMC3927927.
Results are given in words; binding and its absence hold for the method and conditions named. Binding seen in cells or lysates may run through a third protein. Some entries that bind do so weakly or less than the wild type. Tags and fused reporters may be left off the sequences shown.

B1: mouse PKD1 (protein kinase D1) heterologously expressed in ARVMs (AdV:wtPKD1) (enzyme, UniProt Q62101 1-918)
chain: MSVPPLLRPPSPLLPAAAAVAAAAAALVPGSGPAPFPAPGAAPAGGISFHLQIGLSREPVLLLQDSSGDYSLAHVREMACSIVDQKFPECGFYGLYDKILLFRHDPASDNILQLVKIASDIQEGDLIEVVLSASATFEDFQIRPHALFVHSYRAPAFCDHCGEMLWGLVRQGLKCEGCGLNYHKRCAFKIPNNCSGVRRRRLSNVSLTGLGTVRTASAEFSTSVPDEPLLSPVSPGFEQKSPSESFIGREKRSNSQSYIGRPIQLDKLLMSKVKVPHTFVIHSYTRPTVCQFCKKLLKGLFRQGLQCKDCRFNCHKRCAPKVPNNCLGEVTINGELLSPGAESDVVMEEGSDDNDSERNSGLMDDMDEAMVQDTEMALAEGQSGGAEMQDPDADQEDSNRTISPSTSNNIPLMRVVQSVKHTKRRSSTVMKEGWMVHYTSKDTLRKRHYWRLDSKCITLFQNDTGSRYYKEIPLSEILCLEPAKPSALTPVGATPHCFEITTANVVYYVGENVVNPSSSPPNNSVLPSGIGPDVARMWEVAIQHALMPVIPKGSSVGSGSNSHKDISVSISVSNCQIQENVDISTVYQIFPDEVLGSGQFGIVYGGKHRKTGRDVAIKIIDKLRFPTKQESQLRNEVAILQNLHHPGVVNLECMFETPERVFVVMEKLHGDMLEMILSSEKGRLPEHITKFLITQILVALRHLHFKNIVHCDLKPENVLLASADPFPQVKLCDFGFARIIGEKSFRRSVVGTPAYLAPEVLRNKGYNRSLDMWSVGVIIYVSLSGTFPFNEDEDIHDQIQNAAFMYPPNPWKEISHEAIDLINNLLQVKMRKRYSVDKTLSHPWLQDYQTWLDLRELECRIGERYITHESDDSRWEQYAGEQGLQYPAHLISLSASHSDSPEAEEREMKALSERVSIL
modifications: phosphorylated at Ser744/Ser748 and Ser916 after PMA treatment of the cells
B2: endogenous PKD1 (protein kinase D1) of NRVMs (enzyme, UniProt Q9WTQ1 1-918)
chain: MSAPPLLRPPSPLLPAAAAVAAAAAALVPGSGPAPFPAPGAAPAGGISFHLQIGLSREPVLLLQDSSGDYSLAHVREMACSIVDQKFPECGFYGLYDKILLFRHDPASENILQLVKIASDIQEGDLIEVVLSASATFEDFQIRPHALFVHSYRAPAFCDHCGEMLWGLVRQGLKCEGCGLNYHKRCAFKIPNNCSGVRRRRLSNVSLTGLGTVRTASAEFSTSAPDEPLLSPVSPGFEQKSPSESFIGREKRSNSQSYVGRPIQLDKLLMSKVKVPHTFVIHSYTRPTVCQFCKKLLKGLFRQGLQCKDCRFNCHKRCAPKVPNNCLGEVTINGELLSPGAESDVVMEEGSDDNDSERNSGLMDDMDEAMVQDTEMALAEGQSDGAEMQDPDADQEDSNRTISPSTSNNIPLMRVVQSVKHTKRRSSTVMKEGWMVHYTSKDTLRKRHYWRLDSKSITLFQNDTGSRYYKEIPLSEILCLEPAKPSALIPTGANPHCFEITTANVVYYVGENVVNPSSPPPNNSVPPSGIGTDVARMWEVAIQHALMPVIPKGSSVGSGTNSHKDISVSISVSNSQIQENVDISTVYQIFPDEVLGSGQFGIVYGGKHRKTGRDVAIKIIDKLRFPTKQESQLRNEVAILQNLHHPGVVNLECMFETPERVFVVMEKLHGDMLEMILSSEKGRLPEHITKFLITQILVALRHLHFKNIVHCDLKPENVLLASADPFPQVKLCDFGFARIIGEKSFRRSVVGTPAYLAPEVLRNKGYNRSLDMWSVGVIIYVSLSGTFPFNEDEDIHDQIQNAAFMYPPNPWKEISHEAIDLINNLLQVKMRKRYSVDKTLSHPWLQDYQTWLDLRELECRIGERYITHESDDSRWEQYAGEQGLQYPAHLINLSASHGDSPEAEEREMKALSERVSIL
modifications: phosphorylated at Ser744/Ser748 and Ser916 after ET1 treatment of the cells

Assays:
[1] = target: T1, GST–FHL2 (recombinant human four-and-a-half LIM domains protein 2 fused to GST) (human) (UniProt Q14192); assay: pull-down; 5 μg GST–FHL1, GST–FHL2 or GST pre-bound to glutathione–Sepharose 4B beads; lysates of ARVMs transduced with AdV:wtPKD1 (vehicle or 100 nM PMA, 10 min); 2 h, 4°C; 50 mM Tris/HCl pH 7.4, 0.05 mM ZnCl2, 2 mM DTT, 1% Triton X-100; immunoblot with total and phospho-specific PKD antibodies; only the target purified
T1 sequence: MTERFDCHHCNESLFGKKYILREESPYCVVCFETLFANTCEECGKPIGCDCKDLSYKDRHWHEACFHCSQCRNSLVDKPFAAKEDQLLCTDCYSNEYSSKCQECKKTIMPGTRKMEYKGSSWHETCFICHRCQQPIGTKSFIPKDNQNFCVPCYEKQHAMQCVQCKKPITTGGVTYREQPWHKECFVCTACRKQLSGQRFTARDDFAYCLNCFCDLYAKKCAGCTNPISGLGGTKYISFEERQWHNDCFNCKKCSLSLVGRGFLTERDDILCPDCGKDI

[2] = target: T2, GST–FHL1 (recombinant mouse four-and-a-half LIM domains protein 1 fused to GST) (mouse) (UniProt P97447); assay: as above
T2 sequence: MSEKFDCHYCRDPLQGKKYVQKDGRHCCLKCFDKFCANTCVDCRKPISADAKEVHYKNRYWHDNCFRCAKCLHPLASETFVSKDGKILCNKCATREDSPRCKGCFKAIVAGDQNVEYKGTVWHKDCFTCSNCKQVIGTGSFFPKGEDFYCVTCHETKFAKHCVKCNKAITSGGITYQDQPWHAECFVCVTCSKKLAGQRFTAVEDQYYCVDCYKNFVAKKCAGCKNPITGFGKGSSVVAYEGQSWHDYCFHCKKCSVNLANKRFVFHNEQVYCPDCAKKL

[3] = target: T1, GST–FHL2 (recombinant human four-and-a-half LIM domains protein 2 fused to GST) (human); assay: pull-down; 5 μg GST–FHL1, GST–FHL2 or GST pre-bound to glutathione–Sepharose 4B beads; lysates of NRVMs (vehicle or 10 nM ET1, 10 min), endogenous PKD; 2 h, 4°C; 50 mM Tris/HCl pH 7.4, 0.05 mM ZnCl2, 2 mM DTT, 1% Triton X-100; immunoblot with total and phospho-specific PKD antibodies; only the target purified
[4] = target: T2, GST–FHL1 (recombinant mouse four-and-a-half LIM domains protein 1 fused to GST) (mouse); assay: as above

Row | Binder | binding [1] | binding [2] | binding [3] | binding [4]
1 | B1 | binds | binds | – | –
2 | B2 | – | – | binds | binds
